Results reported in PubChem BioAssay AID540256 (National Center for Advancing Translational Sciences (NCATS), 2011).
“And” between values parts separate entries of the source, which are not always exact repeats. Identical values can stand only once. Among all 300,000 compounds or so, about 3,700 (1.2%) were called active. The inconclusive results got no clear call from the source; some entries with a clear call stand among them for comparison. The call rests on the fitted dose curve; tested in HEK293 cells. Potencies beside an inconclusive call are fits to weak or partial responses and may not hold up.

Test: qHTS for Inhibitors of binding or entry into cells for Lassa Virus; further: nearly all actives have a fitted effect of over 50% in size
Conditions: Lassa virus pseudotype entry inhibition, cell reporter; activity change, negative = inhibition: at 37.9 µM (top of the series) unless noted
On the % scale 0 is the no-effect control and ±100 the full control effect; potency means the concentration at half of the fitted maximal effect.

SMILES	Potency	activity change, negative = inhibition
CCOCN(C(=O)Cn1c(COC)nc2ccccc21)c1c(C)cccc1CC	inconclusive: 18.3 µM [inhibitor, partial curve] and inconclusive: 3.16 µM [inhibitor, full curve]	
COc1cccc(CNC(C)(C)CO)c1OCc1ccc(Cl)cc1		inactive: -26.1%
CN(C)c1ccc(CN2CC=C(c3ccc(F)cc3)CC2)cc1	inconclusive: 5.8 µM [inhibitor, full curve]	
COc1ccc(C(=O)c2c(NC(C)=O)sc3c2CCN(C(=O)OC(C)(C)C)C3)cc1	inconclusive: 6.31 µM [inhibitor, partial curve, poor fit]	
CCc1c(C)c2ccc(O)c(CN3CCN(c4ccc(F)cc4)CC3)c2oc1=O		inactive: 5.42% [at 46.1 µM]
O=C(CCC(=O)N1CCN(c2ccc(F)cc2)CC1)c1ccccc1		inactive: 5.44% [at 46.1 µM]
O=C(/C=C\Nc1ccccn1)c1ccc(Cl)cc1	inconclusive: 5.8 µM [inhibitor, partial curve, poor fit]	
COC(=O)CCCn1c(C)cc(C(=O)CCl)c1C	inconclusive: 14.1 µM [inhibitor, single point]	
COc1ccc(N2CCN(C(=O)C3CCCN(c4ncnc5c4nc4n5CCCCC4)C3)CC2)cc1 (stereo not given)	inconclusive: 11.2 µM [inhibitor, partial curve, poor fit]	
c1ccc(-c2ccc(-c3ccccn3)s2)nc1	inconclusive: 15.8 µM [inhibitor, single point]	
COCCCNC(=O)c1cccn2c(=O)c3cc4ccccc4cc3nc12	inconclusive: 32.6 µM [inhibitor, single point]	
Cc1cc(C)n(-c2nc3ccccc3c(=O)n2OCC(C)C)n1	inconclusive: 6.31 µM [inhibitor, single point]	
CCCCc1nnc(SC(C)C(=O)Nc2nccs2)n1C (stereo not given)	inconclusive: 5.01 µM [activator, single point]	
CCCOc1ccc(C(=O)NNC(=S)NC(=O)c2ccco2)cc1	inconclusive: 11.2 µM [inhibitor, partial curve, poor fit]	
COc1ccccc1NC(=O)Nc1nc(CC(=O)N2CCN(c3ccccc3OC)CC2)cs1	inconclusive: 35.5 µM [inhibitor, single point]	
Cn1c(/C(C#N)=C/c2ccccc2Br)nc2ccccc21	inconclusive: 31.6 µM [inhibitor, single point]	
Nc1ccc2nc3c(c(Cl)c2c1)CCCC3		inactive: -28.2%
Cc1c(NC(=O)CSc2nccn2C)c(=O)n(-c2ccccc2)n1C	inconclusive: 6.51 µM [activator, single point]	
O=C(NCC(c1cccs1)N1CCOCC1)c1ccc(Br)o1 (stereo not given)	inconclusive: 14.1 µM [inhibitor, single point]	
Cc1cccn2c(=O)c(C=C(C#N)C#N)c(N3CCN(c4cccc(Cl)c4)CC3)nc12	inconclusive: 35.5 µM [inhibitor, single point]	
COc1ccc(N=Nc2nc3ccc(Br)cc3n2C)cc1		inactive: -12.9%
COc1ccccc1/C=C/c1nc(C#N)c(NC2CCCCC2)o1	inconclusive: 3.55 µM [inhibitor, full curve, poor fit]	
Cc1ccc2nc(NC(=O)COC(=O)c3ccc(Br)o3)sc2c1	inconclusive: 8.91 µM [activator, partial curve, poor fit]	

SMILES	Potency	activity change, negative = inhibition
CCOC(=O)c1cc2n(c1/N=C/N(C)C)-c1ccccc1C2=O	inconclusive: 2.91 µM [inhibitor, partial curve, poor fit]	
COc1ccc(OC(=O)N2C/C(=C/c3ccccc3)C(=O)/C(=C\c3ccccc3)C2)cc1	active: 7.08 µM	
CN1CCN(c2nc(-c3ccc(Br)cc3)nnc2-c2ccccc2)CC1		inactive: 12.5%
CCc1n[nH]c(=S)n1/N=C/c1c[nH]c2ccc(Br)cc12	inconclusive: 12.6 µM [inhibitor, single point]	
COc1ccc(C2C(=O)N(C3CCCCCC3)CC(=O)N2Cc2ccccc2)cc1OC (stereo not given)	inconclusive: 32.6 µM [inhibitor, single point]	
OC1CCN(c2c3c(nc4cc(-c5cccc(F)c5)nn24)CCCC3)CC1		inactive: -24.1%
COC(=O)CNC(=O)C(NC(=O)c1ccc(Cl)cc1)C(C)C (stereo not given)	inconclusive: 0.92 µM [inhibitor, partial curve, poor fit]	
Fc1ccc2nc(N3CCCCC3)sc2c1	inconclusive: 2.82 µM [activator, partial curve]	
COc1ccc(N2CCN(C(=O)CSc3nc4[nH]ncc4c(=O)n3-c3cccc4ccccc34)CC2)cc1	inconclusive: 35.5 µM [inhibitor, single point]	
CCOC(=O)c1ccc(CC2SC(N)=NC2=O)cc1 (stereo not given)	inconclusive: 2.24 µM [inhibitor, partial curve, poor fit]	
CN(CC(=O)Nc1ccc(OC(F)(F)F)cc1)C(=O)c1ccccc1SCC(=O)N1CCCC1		inactive: -2.91%
COc1ccc(N2C(=S)NC3c4cc(Cl)ccc4OC2(C)C3C(=O)N(C)C)cc1 (stereo not given)		inactive: -20.9% [at 46.1 µM]
COc1cccc(CN=C2Nc3ccccc3CS2)c1	inconclusive: 4.47 µM [activator, partial curve]	
Cc1cccc(CNC(=O)c2cc3cc(S(=O)(=O)N4CCCCC4)ccc3n2C)c1		inactive: -27.6% [at 46.1 µM]
COC(=O)CCCCCc1ccc(C(C)=O)s1		inactive: 2.17%
COc1ccccc1C(=O)NC(=O)CSc1nc2nc(C)cc(C)n2n1		inactive: -16.7%
O=C(CCCSc1nc2ccccc2[nH]1)Nc1nnc(-c2ccccc2)o1		inactive: -2.75%
CCN1CCN(CC(=O)N2N=C(c3cccs3)CC2c2ccc(OC)c(OC)c2)C(=O)C1=O (stereo not given)		inactive: 3.09%
O=C(N/N=C/c1ccc(N2CCOCC2)s1)c1ccccc1Cl		inactive: 12.2%
COc1ccc(C)cc1NC(=O)c1ccc(CN2CCc3ccccc3C2)cc1		inactive: 16.7% [at 46.1 µM]
O=C1CCC(C(=O)OCC(=O)N2N=C3/C(=C/c4ccccc4)CCCC3C2c2ccccc2)N1 (stereo not given)	inconclusive: 29.1 µM [inhibitor, single point]	
COc1ccc(Cl)cc1S(=O)(=O)Nc1ccc2[nH]c(=O)[nH]c2c1	inconclusive: 15.8 µM [inhibitor, single point]	
